70 molecules from PubChem BioAssay AID1999 (Broad Institute, 2009) can be followed below.

The other results are listed elsewhere or left out. Potency and affinity values are given separately. The source made no clear call on entries shown without one.

A short description of this test: activators of PrP 5'UTR-driven reporter translation, dose response, luminescence (AID 1999). As to conditions: H4 cells, PrP 5'UTR luciferase reporter; at 12 µM (top of the series) unless noted. In general terms: Reporter assays use an easily measured gene product as a stand-in for the process of interest.
`Cc1cc(C)n2nc(Nc3ccccc3)cc2n1`: the activation was determined as 58.5%.

Take `COC(=O)c1cc(CSc2nc3ccccc3[nH]2)oc1C`: the activation was 67.3%.

Turning to `c1ccc2nc(-c3ccc(-n4ccnc4)cc3)ccc2c1`, the activation was 10.1%.

For the molecule `O=C(CN1C(=O)NC2(CCCCCC2)C1=O)c1ccc2c(c1)OCCO2`, the activation is 76.9%.

`CC1CCC(=C(C#N)c2nc(-c3cc4ccccc4oc3=O)cs2)CC1` (stereo not given): the activation turned out to be 71.7%.

As to `Cc1ccc(C(=O)Nc2nc3ccccc3c(=O)s2)cc1`, the activation amounted to 21.1%.

As to `COC(=O)CCN1CCc2cc(N=Nc3ccc([N+](=O)[O-])cc3)ccc21`, the activation was 18.8%.

On to `CCOC(=O)C(=O)N(Nc1ccc(C)cc1)c1ccc(C)cc1`, for which the activation was found to be 77.2%.

On to `CCc1ccc2oc(-c3cc(N=Cc4cccc(OC)c4O)ccc3O)nc2c1`, for which the activation is -5.6%.

For `Cc1nc2c(C(=O)N3CCCCC3)cnn2c(C)c1Cc1ccccc1F`, the activation is 44.6%.

`Cc1cc(NC(=O)OC2CCCCC2)ccc1[N+](=O)[O-]`: the activation worked out at 56.3%.

With `CC1(C)CC(=O)c2cnc(N3CCc4ccccc4C3)nc2C1`, the activation turned out to be 43.2%.

As for `C/C(=N\Nc1ccc(C(=O)O)cc1)c1nc2ccccc2n1C`, the activation amounted to 111%.

With `CSc1nsc(N/N=C/c2ccc3c(c2)OCO3)c1C#N`, the activation stood at 60.1%.

Turning to `COCCn1c(C)cc(C(=O)CSc2nc3ccccc3c(=O)[nH]2)c1C`, the activation was 46.9%.

Take `COc1cccc(Nc2nnc(SCc3nc4ccccc4s3)s2)c1`: the activation was 110%.

`Cc1ccc(NC(=O)c2ccc(OC(=O)CCN3C(=O)c4ccccc4C3=O)cc2)cc1`: the activation stood at 73%.

For the molecule `N/C(=N\OC(=O)c1cccc(F)c1)c1ccccc1`, the activation was 124%.

For the molecule `O=C(Nc1ncc(Cc2ccccc2)s1)C1COc2ccccc2O1` (stereo not given), the activation amounted to 67.4%.

Turning to `O=C(Nc1nc2ccsc2c(=O)s1)c1ccc(F)cc1`, the activation came to 58.9%.

For the molecule `COc1cccc(-c2cn3nc(C)c(C)nc3n2)c1`, the activation came to 50.7% [at 6 µM].

Take `O=C(NC1CCCCCC1)c1ccc(CN2CCOCC2)cc1`: the activation worked out at 66.5%.

As to `COc1ccc(Nc2cnn(-c3nc4ccccc4s3)c(=O)c2Cl)cc1`, the activation was determined as 53.1%.

Regarding `Cc1ccc(/C(N)=N/OC(=O)CSc2ccccc2)cc1`, the activation turned out to be 43.7%.

Regarding `Cc1ccc2cc(CCNC(=O)c3cccs3)c(=O)[nH]c2c1C`, the activation came to 57%.

As to `CN1CCN(CC(=O)N(C)c2nc(-c3ccccc3)cs2)CC1`, the activation was determined as 35.8%.

`O=C(NC1CCCC1)c1cc(-c2cccs2)on1`: the activation stood at 92.7%.

Take `CCOC(=O)c1c(-c2ccccc2)cn2c(C)cc(C)nc12`: the activation was found to be 67.5%.

Take `O=C(Nc1nc(-c2ccc3c(c2)OCCO3)cs1)C1CCCC1`: the activation was 74.4%.

For the molecule `COc1ccc(-c2cc3c(=O)n(CC(=O)NCc4ccc(F)cc4)ncn3n2)cc1`, the activation came to 17.6%.

As to `Clc1ccc(Nc2nc3cccnc3s2)cc1`, the activation worked out at 94.2%.

With `O=[N+]([O-])c1ccc2c(c1)nc1n2CCN(C2CCCCC2)C1`, the activation came out at 17.3% [at 6 µM].

On to `CC1Oc2cc3oc4c(O)c5c(cc4c(=O)c3c(O)c2C1(C)C)C=CC(C)(C)O5` (stereo not given), for which the activation amounted to 103%.

For the molecule `O=C(NCC(O)c1ccccc1)c1ccc(Cl)c(S(=O)(=O)N2CCCC2)c1` (stereo not given), the activation amounted to 49.8%.

As to `Nc1c(C(=O)Nc2ccc3c(c2)OCCO3)nnn1Cc1ccc(Br)cc1`, the activation was found to be 65.1%.

As for `N#Cc1c(NC(=O)C2CCCO2)sc2c1CCCCC2` (stereo not given), the activation came out at 61%.

As to `Cc1cc(N)n2ncc(-c3ccccc3)c2n1`, the activation amounted to 52.9%.

As for `NC(=O)C1CC(=O)N(c2ccc(OCc3ccc(Cl)cc3)cc2)C1` (stereo not given), the activation is 63.5%.

For the molecule `Cc1ccc(N=Nc2c(C)[nH]n(C(N)=S)c2=O)cc1C`, the activation was 108%.

`Clc1ccc(-c2nsc(N3CCOCC3)n2)c(Cl)c1`: the activation is 38.3%.

Regarding `N/C(=N\N=C\c1ccc(O)cc1)c1nonc1N`, the activation was 59.4%.

For the molecule `COc1c(C)cccc1C(=O)Nc1ccc(N2CCOCC2)c(Cl)c1`, the activation was 41.7%.

In the case of `Cn1cccc1/C=C1\CCC/C(=C\c2cccn2C)C1=O`, the activation was found to be 77.5%.

For `O=C1N(c2ccccc2)C[C@@H]2C[C@@H](c3cc4ccccc4o3)N3CCC[C@@]123`, the activation is -77.7%.

For `Cc1ccc(C(=O)Cn2ncsc2=N)cc1`, the activation was found to be 63.9%.

As for `CSc1ccc(CNC(=O)Cc2ccc(NC(=O)C3=C(C)OCCS3)cc2)cc1`, the activation stood at 17.9%.

Regarding `Nc1c(C(=O)c2ccccc2)oc2ccc(Br)cc12`, the activation stood at 93.9%.

With `COc1cccc2[nH]c(=O)c(-c3ccccc3)cc12`, the activation was found to be 54.6%.

Consider `COc1ccc(C(=O)N=c2sc3c(C)ccc(OC)c3n2C)cc1OC`, for which the activation came to 56.1%.

Consider `CN(C)c1ccc(/C=N/n2ncc3ccccc32)cc1`, for which the activation was -33.2%.

Consider `CCOC(=O)c1cnc(SCc2ccccc2)nc1N`, for which the activation worked out at 33.2%.

Take `O=C(Nc1ccc(-c2cn3ccccc3n2)cc1)c1ccco1`: the activation is 35.9%.

Take `Cc1ccccc1-n1c(C)nnc1SCc1nc2ccccc2s1`: the activation is 73.6%.

As to `Cc1ccc(Cn2ccnc2C(=O)Nc2ccccc2)cc1`, the activation was 91.8%.

For `Cc1c(C(=O)NC(=S)NCC(C)C)oc2ccccc12`, the activation worked out at 85.9%.

For the molecule `Cc1ccc(-c2c(C)sc(=NC(=O)c3ccco3)n2C)cc1`, the activation was 9.6%.

For `Cc1ccc(OCCOc2cccc(Br)c2)c([N+](=O)[O-])n1`, the activation came to 67%.

For `O=C(N/N=C\c1cccc(Cl)c1)c1n[nH]c2c1CCCC2`, the activation is 31.3%.

With `CCOC(=O)CSc1nc(-c2ccc3c(c2)OCO3)ccc1C#N`, the activation came to 56.6%.

Consider `Nc1c(-c2cccs2)cnn1-c1nc(-c2ccc(F)cc2)cs1`, for which the activation was found to be 52.6%.

As for `c1ccc2c(c1)oc1c(Nc3ccc(CN4CCOCC4)cc3)ncnc12`, the activation stood at 50.4%.

`Cc1ccc(OCc2nc(-c3ccccc3)no2)c(C)c1`: the activation came to 73.9%.

For the molecule `COc1c2c(cc3oc(=O)c4c5ccc(O)cc5oc4c13)OC(C)(C)CC2`, the activation was 83.5%.

`CCOc1ccc2nc(N3CCOCC3)nc(C)c2c1`: the activation stood at 58%.

Regarding `O=C(Nc1cccc(Cl)c1)c1ccc2c(=O)n3c(nc2c1)CCCCC3`, the activation worked out at 16.4%.

As for `O=C(NC1=NCCS1)c1ccc(-c2ccc(Cl)cc2)o1`, the activation came out at 74.2%.

As to `Cc1nc2cc(NC(=O)CCS(=O)(=O)c3ccccc3)ccc2s1`, the activation was determined as 44.6%.

Consider `O=c1sc(N2CCN(c3ccccc3F)CC2)nc2ccsc12`, for which the activation came out at 79%.

For `CC(C)c1ccc(NC(=O)NC2CCCCC2)cc1`, the activation came out at 37.8%.

In the case of `Cc1cc(NC(=O)c2cccc(Br)c2)n[nH]1`, the activation stood at 62.1%.
